Patent publication US5039791A, “Peptide fragments of tissue plasminogen activator” (Monsanto Company, priority 1989, dated 1991)
Entries after “also recorded” stand apart in the source; their conditions may differ. Not every detail of the peptide structures is certain; ends, links or a residue may be inferred. Where no end group is shown, it is not given here.

Chains of the proteins cited; added tags and fusions are not shown. Residues count along the entry.
UniProt P05121, 24-402: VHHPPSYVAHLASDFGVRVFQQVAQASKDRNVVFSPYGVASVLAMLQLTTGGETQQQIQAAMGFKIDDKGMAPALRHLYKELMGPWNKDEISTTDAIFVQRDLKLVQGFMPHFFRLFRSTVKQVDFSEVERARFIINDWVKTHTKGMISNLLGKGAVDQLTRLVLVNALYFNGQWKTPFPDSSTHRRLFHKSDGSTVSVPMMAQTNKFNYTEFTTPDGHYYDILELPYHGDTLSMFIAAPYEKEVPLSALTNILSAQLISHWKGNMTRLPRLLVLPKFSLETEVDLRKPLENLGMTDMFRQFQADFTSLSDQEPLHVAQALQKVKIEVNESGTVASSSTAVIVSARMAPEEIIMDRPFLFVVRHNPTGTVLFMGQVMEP

Key:
PAI-1 = target: T1, PAI-1 (Homo sapiens, UniProt P05121); assay: PAI-1 inhibition studies: protection of tPA from inactivation by PAI-1, residual tPA enzymatic activity by indirect amidolytic assay; format: biochemical; settings: 1.5 μg/ml PAI-1, 50 ng/ml tPA; for maintenance of tPA activity in the presence of PAI-1 (FIG. 1): 100 μg/ml peptide, one hour at 37° C.; for effect of peptide concentration on the maintenance of tPA activity in the presence of PAI-1 (FIG. 2): several peptide concentrations (30-120 μg/ml)
T1 construct: purchased American Diagnostica, Inc
Procedure: In each case, peptide and PAI-1 were first mixed, followed by the addition of tPA. Final concentrations were: 100 μg/ml peptide, 1.5 μg/ml PAI-1 and 50 ng/ml tPA in phospate buffered saline containing 0.01% sodium azide and 0.01% Tween 80%. After incubation for one hour at 37° C., samples were examined for remaining tPA enzymatic activity. The error bars represent the range of duplicate measurements of the tPA enzymatic activity in μAU/min/min.
Results are expressed as the percentage of tPA enzymatic activity remaining after incubation with tPA, PAI-1 and peptide relative to that seen with tPA alone.
An indirect amidolytic assay for tPA activity was performed by a conventional method as described by Ranby and Wallen, Prog. Fibrinolytics 5, 233-235 (1981) and Ranby, Biochim. Biophys. Acta 740, 461-469 (1982) but with the following modifications. The assay mixture contained 50 μg/ml human glu-plasminogen, 1 mM plasmin substrate S-2251, 130 μg/ml fibrinogen fragment stimulator, and 0 to 20 ng/ml tPA sample in phosphate-buffered saline containing 0.01% sodium azide and 0.01% Tween 80 (PBSAT) in a final volume of 100 μl. The assay was performed in a 96-well microtitration plate at room temperature. Reaction mixtures were overlaid with 50 μl mineral oil to prevent evaporation. Periodic readings were taken at 405 nm and referenced at 650 nm using a Molecular Devices Vmax plate reader. The first derivative of absorbance with respect to time was calculated and the slope of a plot of dA/dt vs time was proportional to tPA activity. Results were expressed in absorbance units (μ AU/min^2) or as a percentage of control.
The effect of peptides on the inactivation of tPA by PAI-1 was measured by incubating 1.5 μg/ml PAI-1, 30-120 μg/ml peptide and 50 ng/ml tPA in PBSAT. PAI-1 and peptide were first mixed, followed by the addition of tPA. After one hour at 37° C., residual tPA enzymatic activity was measured either immediately or after the samples had been frozen and stored.
tPA was incubated with increasing concentrations of PAI-1 for one hour at 37° C. and the incubate was then assayed for residual tPA enzymatic activity.

[1] = test system: human umbilical vein endothelial cells; assay: Endothelial cell binding assay: binding of [125I]-tPA to endothelial cells; settings: for inhibition of binding of tPA to endothelial cells (FIG. 3): 15 μg/ml peptide, about 20 ng/ml [125I]-tPA, 4° C., 90 minutes
Procedure: Peptides from FIG. 1 were examined for their ability to inhibit the binding of [^125 I]-tPA to human umbilical vein endothelial cells. Assays were performed as described under Materials and Methods, below, using a final peptide concentration of 15 μg/ml. All samples were assayed in duplicate. Bar height represents the result obtained for one duplicate point and the corresponding error bar represents the result obtained for the other. Results are shown in percent inhibition of binding.
Assays examining the binding of [^125 I]-tPA to endothelial cells were performed by a conventional method essentially as described by Hajjar et al., J. Clin. Invest. 80, 1712-1719 (1987), and Beebe, Thromb. Res. 46, 241-254 (1987). Briefly, cells were grown to confluence in 24-well dishes using MCDB107 growth medium supplemented with 180 μg/ml heparin, 30 μg/ml ECGS, 100 μg/ml gentamicin and 10% fetal bovine serum. Immediately prior to assay, plates were chilled to 4° C. and all wells were aspirated. Cells were washed 3 times with binding buffer (PBS, pH 7.2, 5.0 mg/ml BSA, 10 mM glucose, 0.01% Tween 80). Five hundred μl of buffer containing approximately 20 ng/ml of [^125 I]-tPA and a test sample of peptide was then added. Incubations proceeded at 4° C. for 90 minutes. At the end of the incubation time, cells were washed rapidly 4 times with 500 μl aliquots of binding buffer. Cells were separated from the plates using 3% sodium dodecylsulfate (SDS) and the amount of radioactivity present was determined. Nonspecific binding was determined by carrying out incubations in the presence of an excess (2.0 μg/ml) of unlabeled tPA.
The peptides shown in Table 1 were examined for their effect on the binding of tPA to cultured human umbilical vein endothelial cells. […] All points were run in duplicate and nonspecific binding was subtracted in each case.

## RRGARSYQVICRDEKTQMIYQQHQS [Peptide 143]
PAI-1
  maintenance of tPA activity in the presence of PAI-1 (FIG. 1): especially effective at maintaining tPA activity
  effect of peptide concentration on the maintenance of tPA activity in the presence of PAI-1 (FIG. 2): steady, progressive increase in activity; also recorded: somewhat less activity
[1]
  inhibition of binding of tPA to endothelial cells (FIG. 3): inhibited the binding of tPA to endothelial cells; also recorded: more effective at inhibiting endothelial cell binding relative to the other active peptides
[1]; several peptide concentrations
  dose response of inhibition of binding of tPA to endothelial cells (FIG. 4): concentration dependent manner

## SMILIGKVYTAQNPSAQALGLGKHN-NH2 [Peptide 164]
PAI-1
  maintenance of tPA activity in the presence of PAI-1 (FIG. 1): marginally active
  effect of peptide concentration on the maintenance of tPA activity in the presence of PAI-1 (FIG. 2): steady, progressive increase in activity
[1]
  inhibition of binding of tPA to endothelial cells (FIG. 3): marginal activity
